PMC7819943, “Rice protein-binding microarrays: a tool to detect cis-acting elements near promoter regions in rice”
Some of the results follow.

biological target: T1, OsSMF1 (Oryza sativa, UniProt Q6ZLB0 1-436); test: protein-binding microarray (RPBM); PBS, 2% BSA, 51.3 ng/ul salmon testes DNA, 50 uM zinc acetate, 200 nM TF, 25 C, 1 h; high values mean tight binding; settings: protein: recombinant; tags: N-terminal polyhistidine and DsRed monomer fusion (pET32a); chain copies: 2; label: CyDye5-dUTP incorporated in the synthesized complementary strand; 3' TTTTT single-stranded linker to array surface; dsDNA, one strand shown
T1 sequence: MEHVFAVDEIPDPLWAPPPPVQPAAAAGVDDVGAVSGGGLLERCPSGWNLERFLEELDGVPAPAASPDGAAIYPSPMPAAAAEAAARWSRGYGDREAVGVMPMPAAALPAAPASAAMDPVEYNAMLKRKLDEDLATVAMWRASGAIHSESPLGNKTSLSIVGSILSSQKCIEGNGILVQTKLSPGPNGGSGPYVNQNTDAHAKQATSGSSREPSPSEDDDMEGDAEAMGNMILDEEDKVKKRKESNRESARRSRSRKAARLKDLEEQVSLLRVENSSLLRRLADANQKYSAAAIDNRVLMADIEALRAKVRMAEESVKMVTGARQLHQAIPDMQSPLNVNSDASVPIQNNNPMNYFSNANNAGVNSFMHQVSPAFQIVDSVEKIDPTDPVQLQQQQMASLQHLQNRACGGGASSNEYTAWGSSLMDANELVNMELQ
Outline: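 Binding signal is reported as fluorescence intensity per feature (arbitrary units) from an Axon 4000B scanner. Incubation used 200 nM of each Ni–NTA-purified, N-terminally polyhistidine- and DsRed-fused transcription factor from E. coli BL21-CodonPlus on a double-stranded custom Agilent array for 1 h at 25 °C, with 50 µM zinc acetate in the buffer, followed by washing.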

| Sequence | binding signal |
| --- | --- |
| ACTAATAATAAATAAAACTTAATTAGGCCCACAATTAGAACGGAGTCACCTAGTGCAG | 36900 fluorescence intensity (a.u.) |
| TGGACTGTAGTAGTGTGGATGCTTACGTCGTAGTGGTGGACGGAGTCACCTAGTGCAG | 3750 fluorescence intensity (a.u.) |
| CCAACATATATGGGCCACACGTAAGTACCAATCCCGTTATCGGAGTCACCTAGTGCAG | 5850 fluorescence intensity (a.u.) |
| CGCGTGGCTGCGCAGCTGAGGTTTGACTAGGGTTTTGCTACGGAGTCACCTAGTGCAG | 3550 fluorescence intensity (a.u.) |
| CACTGGGCTTCGATTGGGCTATAAGACCAATACTAGTTGCCGGAGTCACCTAGTGCAG | 3190 fluorescence intensity (a.u.) |
| CAAACTCCAAACGCACTTGACTTCCTCCTCGTCATCGCTGCGGAGTCACCTAGTGCAG | 5610 fluorescence intensity (a.u.) |
| CGGGAACACCACTGGCCGCCGGCGTCACCGCCTCCTCGCCCGGAGTCACCTAGTGCAG | 3140 fluorescence intensity (a.u.) |
| TTCTCCGTGTTAATATCACTTACGTCAAGGACCTATTTGTCGGAGTCACCTAGTGCAG | 4620 fluorescence intensity (a.u.) |
| GCACTCACCTCTATGAGCGTATACACACAGATAGGTACATCGGAGTCACCTAGTGCAG | 33600 fluorescence intensity (a.u.) |
| GACGACTGAAAACTTGAGCAGTCACAATATTGCTGTCCGACGGAGTCACCTAGTGCAG | 3340 fluorescence intensity (a.u.) |
| ACCACACTACGTGCGCCACGTACATCATCCCGTGCCATGTCGGAGTCACCTAGTGCAG | 13400 fluorescence intensity (a.u.) |
| AATGTGCGCCTGTGCGAGTGCGACGAATGTACCTAACAGTCGGAGTCACCTAGTGCAG | 3180 fluorescence intensity (a.u.) |
| CACCGAGGAAATGCTGACCTCGACGTTTGGCCTGTGAATACGGAGTCACCTAGTGCAG | 3240 fluorescence intensity (a.u.) |
| ACCAAAATTTAAAATTTCAACCTTAAATTCAGAGTTGATTCGGAGTCACCTAGTGCAG | 20900 fluorescence intensity (a.u.) |
| GCGCTGTCCCCGTCATGCGTGTTGGTGGTATAGTACTAGTCGGAGTCACCTAGTGCAG | 5560 fluorescence intensity (a.u.) |
| TACATTATTAAATAACTAATCTACTCATCTCTTTCACATGCGGAGTCACCTAGTGCAG | 4340 fluorescence intensity (a.u.) |
| CCAGCCTCGCCACCTCGCCCATGCTTATCGCTCTCTTCCCCGGAGTCACCTAGTGCAG | 3410 fluorescence intensity (a.u.) |
| TGGTCTAAACGACACGAAACTCTGTCATTATTCTCTGGAACGGAGTCACCTAGTGCAG | 3600 fluorescence intensity (a.u.) |
| GAACCTGTCTCCCGAACTCGGGAAATTTAACTATTTGCCACGGAGTCACCTAGTGCAG | 3930 fluorescence intensity (a.u.) |
| TAGTCCTTCAGTTTCAGTCCCCTCGCATCGCCATAACCACCGGAGTCACCTAGTGCAG | 5620 fluorescence intensity (a.u.) |
| GGCCGCGTGTGGCCGCCGGACCAGTTCGCGTCCTGTGCCTCGGAGTCACCTAGTGCAG | 11700 fluorescence intensity (a.u.) |
| ATGGGCCTAAATAGTAGCTGCCATGTGGACTTTTATGATGCGGAGTCACCTAGTGCAG | 4890 fluorescence intensity (a.u.) |
| AAAGAAGGAGATGATATAAGGGGTAGCAACTGGTGTGACTCGGAGTCACCTAGTGCAG | 3140 fluorescence intensity (a.u.) |
| AACCCGCGATCTGACCGGTCTGTGACCGGTCACACACTGCCGGAGTCACCTAGTGCAG | 3800 fluorescence intensity (a.u.) |
| CATAGTTGACTTCCAAGGCAAGACAGATGAGATATGCATTCGGAGTCACCTAGTGCAG | 45500 fluorescence intensity (a.u.) |
| AACGGTTAAATGTTGGACATTAATGGTGTAAAATAATACTCGGAGTCACCTAGTGCAG | 4300 fluorescence intensity (a.u.) |
| ACAATTTCATTTGTTGCCACGTTGCGTACTGAACAGTGCACGGAGTCACCTAGTGCAG | 7790 fluorescence intensity (a.u.) |

4 entries from above in a different format:
Sequence,binding signal
CACTGGGCTTCGATTGGGCTATAAGACCAATACTAGTTGCCGGAGTCACCTAGTGCAG,3190 fluorescence intensity (a.u.)
CAAACTCCAAACGCACTTGACTTCCTCCTCGTCATCGCTGCGGAGTCACCTAGTGCAG,5610 fluorescence intensity (a.u.)
CGGGAACACCACTGGCCGCCGGCGTCACCGCCTCCTCGCCCGGAGTCACCTAGTGCAG,3140 fluorescence intensity (a.u.)
TTCTCCGTGTTAATATCACTTACGTCAAGGACCTATTTGTCGGAGTCACCTAGTGCAG,4620 fluorescence intensity (a.u.)

Carrying on.

| Sequence | binding signal |
| --- | --- |
| TATTTTGGAAAATGAGTCACAGGGTTATTGTAGCTTTGAACGGAGTCACCTAGTGCAG | 9390 fluorescence intensity (a.u.) |
| AAGCATTGTGACAGTGTGAGTGGTACCCGTCAAATGTCATCGGAGTCACCTAGTGCAG | 3630 fluorescence intensity (a.u.) |
| CGCGACGGTGGACGCGGCCATCGCCGTCGACCAGTGCAGGCGGAGTCACCTAGTGCAG | 3380 fluorescence intensity (a.u.) |
| AAACCGGACCAATCTACGTCACTCACCTACTACCACAAGACGGAGTCACCTAGTGCAG | 4260 fluorescence intensity (a.u.) |
| TCTGAAAAGGAAAGGGAGGAGAGAGAAAGGCAAAGAGGAGCGGAGTCACCTAGTGCAG | 26000 fluorescence intensity (a.u.) |
| TGGTGCGGAGATCGGATGCGTCACCTTGCTTCGGTTGCGCCGGAGTCACCTAGTGCAG | 5080 fluorescence intensity (a.u.) |
| AAAATATTATTTTCCCTGAGTCATCTTATACTTGAATTTGCGGAGTCACCTAGTGCAG | 4530 fluorescence intensity (a.u.) |
| GTTGCGCCGCTGTGCTGGTCAAAGCTGGCGGTGTACGATGCGGAGTCACCTAGTGCAG | 3640 fluorescence intensity (a.u.) |
| CGTCGCCTCCACGGAGGAGAGCCCCGTCACGCCGCTCCGCCGGAGTCACCTAGTGCAG | 5910 fluorescence intensity (a.u.) |
| GGATGTGATGACTGTTTGTCTGTTTGGCTGATATCTCCACCGGAGTCACCTAGTGCAG | 7420 fluorescence intensity (a.u.) |
| CCTCTCTCATCAGCACACACTGTCACCACAACAGCCACCACGGAGTCACCTAGTGCAG | 3830 fluorescence intensity (a.u.) |
| AAGCAAATCTCTAGATAGATAGATAGATGGATGGATGGATCGGAGTCACCTAGTGCAG | 33800 fluorescence intensity (a.u.) |
| GTCGGATTAGTGATTATGCTAATCAATGCCACGTAGGATCCGGAGTCACCTAGTGCAG | 27000 fluorescence intensity (a.u.) |
| ACTGCGACGTACACACGTGGCAAGTGCATTTCCTCCCGATCGGAGTCACCTAGTGCAG | 10800 fluorescence intensity (a.u.) |
| GGCAAAATGAGGACGCAGTCTATCGAGACGGTGACACTGCCGGAGTCACCTAGTGCAG | 3490 fluorescence intensity (a.u.) |
| AACCTCATCCCAGCTGACGTTCACCCGACGCCGCCCGTCGCGGAGTCACCTAGTGCAG | 5120 fluorescence intensity (a.u.) |
| CCTCTGCCATCATCGTCGTCATCCCATCCGGATTGCCACCCGGAGTCACCTAGTGCAG | 5630 fluorescence intensity (a.u.) |
| CAAAATCTTCTGTGACTCATTGCATGATGCATTTAACTAGCGGAGTCACCTAGTGCAG | 5780 fluorescence intensity (a.u.) |
| GTCCGATCTGTCGCAAGGCTTACTCATCGGACGGCCGAGACGGAGTCACCTAGTGCAG | 3190 fluorescence intensity (a.u.) |
| CGAAGAAACAATAGCTCATCGGATCTAATTCTGATCATATCGGAGTCACCTAGTGCAG | 24400 fluorescence intensity (a.u.) |
| TGTATCTGTACTATACCTCTGTACGCTGCCATGTGAACTACGGAGTCACCTAGTGCAG | 3470 fluorescence intensity (a.u.) |
| ACTCGTGACAAAGCAGACACGTGCTCAATGCGTAACAAGACGGAGTCACCTAGTGCAG | 5160 fluorescence intensity (a.u.) |
| CCTTTGCCACCTTCTCTAATAAAGTAATATGTGTGTCATACGGAGTCACCTAGTGCAG | 3920 fluorescence intensity (a.u.) |
| CACGCGTCGTGCAGCCATTGGTGGCACGTCAGCATCATCGCGGAGTCACCTAGTGCAG | 22400 fluorescence intensity (a.u.) |
| AGACTAATGACAACATGCACTTTTAGGCGACGTGTATATACGGAGTCACCTAGTGCAG | 3260 fluorescence intensity (a.u.) |
| CCTAAGCTAAAGTTTGATGCCAAAATCGCATCGAGCTCACCGGAGTCACCTAGTGCAG | 21400 fluorescence intensity (a.u.) |
| ACATGCCATGTACACGTACAGTACACGAAAGCACAGACAACGGAGTCACCTAGTGCAG | 4370 fluorescence intensity (a.u.) |
